Reference: paper PMC5337621
Results are given in words; binding and its absence hold for the method and conditions named. In cells and extracts the contact can be indirect. Some results given as binding are weak or reduced against the parent protein; the word gives no strength. Where a sequence is shown, tags or fusion partners need not be part of it.

Protein sequences, listed by entry. Tags and fused reporters are not part of them.
UniProt O15392: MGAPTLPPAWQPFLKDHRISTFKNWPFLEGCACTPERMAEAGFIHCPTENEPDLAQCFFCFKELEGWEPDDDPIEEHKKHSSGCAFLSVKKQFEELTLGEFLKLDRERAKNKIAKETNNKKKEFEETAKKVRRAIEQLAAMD

Tests used:
Flag-tagged FBXL7 = target: T1, Flag-tagged FBXL7 (UniProt Q9UJT9); assay: co-IP; HEK293T cells co-transfected with Flag-tagged FBXL7 and His-tagged Survivin, 24 h; lysed in co-IP buffer; immunoprecipitation with rabbit Flag, His and control IgG antibodies; western blot
T1 sequence: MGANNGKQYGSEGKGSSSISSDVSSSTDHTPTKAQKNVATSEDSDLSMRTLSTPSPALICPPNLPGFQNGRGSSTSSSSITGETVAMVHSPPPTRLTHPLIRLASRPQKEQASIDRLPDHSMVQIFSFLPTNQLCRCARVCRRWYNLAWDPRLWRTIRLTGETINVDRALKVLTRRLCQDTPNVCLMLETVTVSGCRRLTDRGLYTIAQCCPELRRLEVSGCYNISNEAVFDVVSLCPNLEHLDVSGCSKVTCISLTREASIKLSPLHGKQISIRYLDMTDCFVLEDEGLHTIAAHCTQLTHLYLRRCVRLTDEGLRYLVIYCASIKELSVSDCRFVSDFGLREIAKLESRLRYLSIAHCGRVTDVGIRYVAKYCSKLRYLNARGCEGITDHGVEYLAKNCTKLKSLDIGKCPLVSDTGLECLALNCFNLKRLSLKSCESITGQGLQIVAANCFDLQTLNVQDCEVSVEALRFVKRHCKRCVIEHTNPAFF

[1] = target: His-tagged Survivin (human) (UniProt O15392); assay: as above
His-tagged FOXP1 = target: T2, His-tagged FOXP1 (UniProt Q9H334); assay: co-IP; HEK293T cells transfected with His-tagged FOXP1 and AURKA plasmids; whole-cell lysates immunoprecipitated with control IgG, His and AURKA antibodies; immunoblot
T2 sequence: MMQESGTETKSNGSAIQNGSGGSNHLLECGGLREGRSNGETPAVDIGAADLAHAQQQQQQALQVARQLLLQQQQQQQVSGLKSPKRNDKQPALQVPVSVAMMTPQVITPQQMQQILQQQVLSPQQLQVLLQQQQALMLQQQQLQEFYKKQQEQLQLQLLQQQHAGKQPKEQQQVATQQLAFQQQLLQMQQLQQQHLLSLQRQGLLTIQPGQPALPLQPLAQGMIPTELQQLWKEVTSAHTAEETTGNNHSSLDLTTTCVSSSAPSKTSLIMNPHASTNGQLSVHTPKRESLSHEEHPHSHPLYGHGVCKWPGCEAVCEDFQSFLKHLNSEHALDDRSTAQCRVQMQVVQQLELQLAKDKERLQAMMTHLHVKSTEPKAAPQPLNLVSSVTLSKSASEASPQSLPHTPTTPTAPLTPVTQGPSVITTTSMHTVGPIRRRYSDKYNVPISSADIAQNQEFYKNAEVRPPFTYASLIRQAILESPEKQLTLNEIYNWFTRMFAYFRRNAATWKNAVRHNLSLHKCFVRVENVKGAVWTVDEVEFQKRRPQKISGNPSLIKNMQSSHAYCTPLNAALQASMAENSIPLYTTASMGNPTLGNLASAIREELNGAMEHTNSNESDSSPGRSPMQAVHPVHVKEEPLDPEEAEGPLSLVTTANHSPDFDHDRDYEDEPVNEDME

[2] = target: T3, Aurora kinase A (AURKA) (human) (UniProt O14965); assay: as above
T3 sequence: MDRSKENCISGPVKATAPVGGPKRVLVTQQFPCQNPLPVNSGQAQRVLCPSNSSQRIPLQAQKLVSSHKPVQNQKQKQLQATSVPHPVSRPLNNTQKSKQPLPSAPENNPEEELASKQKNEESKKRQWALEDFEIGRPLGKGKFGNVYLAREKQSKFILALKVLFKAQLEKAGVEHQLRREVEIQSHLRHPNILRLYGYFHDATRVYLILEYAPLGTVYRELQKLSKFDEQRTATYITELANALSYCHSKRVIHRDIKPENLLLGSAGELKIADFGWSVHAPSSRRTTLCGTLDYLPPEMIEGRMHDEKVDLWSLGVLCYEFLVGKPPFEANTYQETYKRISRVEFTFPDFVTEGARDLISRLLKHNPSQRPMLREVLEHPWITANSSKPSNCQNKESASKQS

With “His-tagged Survivin (from UniProt O15392 1-142)” the binding (Flag-tagged FBXL7) was “binds”.

B1: Flag-tagged FBXL7 (protein, UniProt Q9UJT9 1-491)
chain: T1 sequence
With B1 the binding [1] was “binds”.

B2: Aurora kinase A (AURKA) (protein, UniProt O14965 1-403)
chain: T3 sequence
B2 was tested, and the binding (His-tagged FOXP1) was “binds”.

B3: His-tagged FOXP1 (protein, UniProt Q9H334 1-677)
chain: T2 sequence
In the case of B3, the binding [2] is reported as “binds”.
